Laboratory results taken from the supplement of paper PMC10849652.
The list shows a part of the results.

Amino acid sequences for entries named in this document (tags omitted). A change or cut given only in a name is not applied to a line headed by its entry.
UniProt Q9Y333: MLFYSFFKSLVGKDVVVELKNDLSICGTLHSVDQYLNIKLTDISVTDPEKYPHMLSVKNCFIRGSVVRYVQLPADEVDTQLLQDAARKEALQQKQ
UniProt Q16539, whole entry, looked up: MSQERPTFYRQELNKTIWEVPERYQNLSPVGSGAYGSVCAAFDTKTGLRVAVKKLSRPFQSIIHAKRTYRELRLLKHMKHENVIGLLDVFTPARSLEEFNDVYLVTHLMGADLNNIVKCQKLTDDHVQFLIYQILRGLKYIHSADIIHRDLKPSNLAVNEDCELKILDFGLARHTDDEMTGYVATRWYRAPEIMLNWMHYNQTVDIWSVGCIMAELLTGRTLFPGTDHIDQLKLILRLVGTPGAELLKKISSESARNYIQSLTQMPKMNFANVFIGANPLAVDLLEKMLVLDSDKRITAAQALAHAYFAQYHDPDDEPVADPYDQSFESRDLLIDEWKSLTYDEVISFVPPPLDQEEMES
UniProt P55145: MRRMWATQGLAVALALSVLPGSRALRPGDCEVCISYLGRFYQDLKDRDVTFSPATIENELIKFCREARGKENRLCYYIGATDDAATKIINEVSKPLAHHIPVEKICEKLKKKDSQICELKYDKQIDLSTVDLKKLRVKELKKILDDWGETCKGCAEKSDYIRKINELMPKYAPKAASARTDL
UniProt Q9Y608: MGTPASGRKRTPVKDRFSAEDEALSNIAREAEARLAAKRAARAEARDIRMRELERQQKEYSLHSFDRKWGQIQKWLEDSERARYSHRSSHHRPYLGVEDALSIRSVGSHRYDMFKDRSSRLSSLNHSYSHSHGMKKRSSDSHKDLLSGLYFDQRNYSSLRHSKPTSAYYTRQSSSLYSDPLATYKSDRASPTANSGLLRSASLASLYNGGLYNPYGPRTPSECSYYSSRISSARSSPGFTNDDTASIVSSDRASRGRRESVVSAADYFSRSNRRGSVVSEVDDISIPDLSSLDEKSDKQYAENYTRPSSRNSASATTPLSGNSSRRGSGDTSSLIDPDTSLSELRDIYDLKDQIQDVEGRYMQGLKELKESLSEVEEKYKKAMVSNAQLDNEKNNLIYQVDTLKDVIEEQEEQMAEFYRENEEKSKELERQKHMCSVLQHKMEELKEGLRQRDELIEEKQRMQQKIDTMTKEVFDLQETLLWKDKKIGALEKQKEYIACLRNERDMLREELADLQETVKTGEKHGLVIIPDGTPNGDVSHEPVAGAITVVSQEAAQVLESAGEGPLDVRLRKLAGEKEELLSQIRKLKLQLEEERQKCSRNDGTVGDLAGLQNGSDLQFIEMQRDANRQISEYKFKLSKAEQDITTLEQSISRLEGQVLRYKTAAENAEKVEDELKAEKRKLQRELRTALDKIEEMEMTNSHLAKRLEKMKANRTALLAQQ
UniProt Q6UWE0: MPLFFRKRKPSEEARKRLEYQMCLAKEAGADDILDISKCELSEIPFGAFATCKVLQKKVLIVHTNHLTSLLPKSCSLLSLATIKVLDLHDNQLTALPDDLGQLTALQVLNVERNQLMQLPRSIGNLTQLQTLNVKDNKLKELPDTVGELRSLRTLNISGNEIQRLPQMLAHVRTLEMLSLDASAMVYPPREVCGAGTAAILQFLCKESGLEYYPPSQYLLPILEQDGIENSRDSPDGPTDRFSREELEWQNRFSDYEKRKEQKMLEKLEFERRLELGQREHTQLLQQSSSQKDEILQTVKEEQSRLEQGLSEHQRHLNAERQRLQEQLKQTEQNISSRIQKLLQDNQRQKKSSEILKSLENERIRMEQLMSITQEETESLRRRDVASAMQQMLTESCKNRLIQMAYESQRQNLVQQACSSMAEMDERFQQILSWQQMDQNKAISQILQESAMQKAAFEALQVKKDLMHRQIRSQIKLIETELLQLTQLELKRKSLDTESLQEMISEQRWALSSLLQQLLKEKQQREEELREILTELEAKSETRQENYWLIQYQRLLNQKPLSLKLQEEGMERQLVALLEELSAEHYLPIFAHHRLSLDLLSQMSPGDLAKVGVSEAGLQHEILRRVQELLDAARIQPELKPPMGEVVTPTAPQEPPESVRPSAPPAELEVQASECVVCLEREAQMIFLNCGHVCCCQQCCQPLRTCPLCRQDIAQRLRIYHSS
UniProt P09960: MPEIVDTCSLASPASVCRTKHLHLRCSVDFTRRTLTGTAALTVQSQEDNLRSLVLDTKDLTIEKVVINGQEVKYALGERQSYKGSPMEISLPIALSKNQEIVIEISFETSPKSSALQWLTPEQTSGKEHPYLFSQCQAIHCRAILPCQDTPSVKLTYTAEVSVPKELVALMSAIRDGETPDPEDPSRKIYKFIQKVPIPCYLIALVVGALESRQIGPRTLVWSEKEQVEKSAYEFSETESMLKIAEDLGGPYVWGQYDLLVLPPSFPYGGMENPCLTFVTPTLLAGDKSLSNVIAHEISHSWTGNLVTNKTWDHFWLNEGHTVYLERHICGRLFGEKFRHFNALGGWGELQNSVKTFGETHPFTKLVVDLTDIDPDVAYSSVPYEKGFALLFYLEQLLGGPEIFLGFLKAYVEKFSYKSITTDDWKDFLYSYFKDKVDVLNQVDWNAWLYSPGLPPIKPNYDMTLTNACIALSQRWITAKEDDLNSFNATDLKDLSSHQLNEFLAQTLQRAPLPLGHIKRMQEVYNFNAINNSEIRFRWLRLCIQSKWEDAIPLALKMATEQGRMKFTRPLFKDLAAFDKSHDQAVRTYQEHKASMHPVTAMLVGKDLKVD
UniProt Q9UPY8, whole entry, looked up: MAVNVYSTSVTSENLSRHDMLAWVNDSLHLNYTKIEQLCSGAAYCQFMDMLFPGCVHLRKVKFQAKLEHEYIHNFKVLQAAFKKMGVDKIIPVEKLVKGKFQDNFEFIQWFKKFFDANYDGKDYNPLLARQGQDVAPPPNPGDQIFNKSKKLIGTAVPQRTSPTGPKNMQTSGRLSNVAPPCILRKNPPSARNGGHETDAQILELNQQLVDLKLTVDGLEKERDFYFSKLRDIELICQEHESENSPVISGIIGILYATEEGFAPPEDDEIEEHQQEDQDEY
UniProt P43366: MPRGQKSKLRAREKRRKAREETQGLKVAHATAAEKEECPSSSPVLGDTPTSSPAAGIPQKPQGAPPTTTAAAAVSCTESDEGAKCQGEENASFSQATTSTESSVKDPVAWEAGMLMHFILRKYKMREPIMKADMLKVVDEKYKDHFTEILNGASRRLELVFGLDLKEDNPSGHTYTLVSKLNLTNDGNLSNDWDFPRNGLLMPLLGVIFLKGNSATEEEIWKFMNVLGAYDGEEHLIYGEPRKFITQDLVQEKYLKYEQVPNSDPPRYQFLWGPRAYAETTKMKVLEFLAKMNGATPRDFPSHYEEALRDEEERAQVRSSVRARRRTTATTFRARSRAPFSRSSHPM

Tests used:
Assay in all cases: log2 fold change, soluble protein after heating vs DMSO (PISA); higher = thermal stabilisation; K562 cells, 10 uM, 30 min; active = over 0.2 and 3.5 SD of the protein, either way, in both replicates (recomputed)
[1] = compound: C1=CC=C(C=C1)[C@H](COC2=CC3=C(C=C2)NC(=O)N3)NC(=O)C4=CC=CN(C4=O)CC5=CC(=C(C=C5)F)F
Summary of the method: (§1)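 K562 cells (2×10^6 cells/mL) were treated with 10 μM compound for 30 min, and aliquots were heated for 3 min over 48°C-58°C. Pooled aliquots were extracted in PBS with 0.5% NP-40 at 4°C, and the supernatant after 21,000xg for 90 min was measured by TMTpro 16plex LC-MS/MS with channel sums equalised. Reported thermal stability, relative to control samples and from duplicates, is a log2 fold change.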

[2] = compound: CC1=C(SC2=C1C(=N[C@H](C3=NN=C(N32)C)CC(=O)N)C4=CC=C(C=C4)Cl)C
Summary of the method: as §1

[3] = compound: CC1=C2C(=CC=C1)N=C(N(C2=O)C3=CC=CC=C3C)CN4C=NC5=C(N=CN=C54)N
Summary of the method: as §1

[4] = compound: Cc1sc2c(c1C)C(c1ccc(Cl)cc1)=N[C@@H](CC(=O)OC(C)(C)C)c1nnc(C)n1-2
Summary of the method: as §1

[5] = compound: c1ccc([C@@H]2C[C@H]2NC2CCNCC2)cc1
Summary of the method: as §1

Measured: log2 fold change

LSM2 (UniProt Q9Y333)
inactive: [1] 0.011 | [2] 0.034 | [3] -0.026 | [4] -0.015 | [5] 0.006

MAPK14 (UniProt Q16539)
inactive: [1] -0.01 | [2] 0.153 | [3] 0.061 | [4] -0.03 | [5] -0.089

MANF (UniProt P55145)
inactive: [1] -0.004 | [2] 0 | [3] -0.039 | [4] -0.003 | [5] -0.003

MAP1LC3B2 (UniProt A6NCE7)
inactive: [1] 0.015 | [2] 0.113 | [3] 0.021 | [4] -0.015 | [5] -0.073

LRRFIP2 (UniProt Q9Y608)
inactive: [1] 0.058 | [2] 0.01 | [3] 0.007 | [4] 0.014 | [5] 0.06

LRSAM1 (UniProt Q6UWE0)
inactive: [1] 0.057 | [2] 0.038 | [3] 0.046 | [4] 0.001 | [5] -0.004

LTA4H (UniProt P09960)
inactive: [1] -0.024 | [2] 0.128 | [3] 0.053 | [4] 0.01 | [5] -0.067

MAPRE3 (UniProt Q9UPY8)
inactive: [1] -0.042 | [2] 0.011 | [3] 0.026 | [4] -0.01 | [5] -0.014

MAGEB1 (UniProt P43366)
inactive: [1] 0.121 | [2] -0.248 | [3] -0.257 | [4] 0.296 | [5] 0.029
